PubChem BioAssay AID2551 (National Center for Advancing Translational Sciences (NCATS), 2010)
The campaign covered roughly 310,000 compounds. About 17,000 (5.5%) were called active. This list was built around the results that the source calls inconclusive (neither active nor inactive); the mix of calls is not that of the screen. The call rests on the fitted dose curve; in most records, active means well fitted inhibition curve with a large enough effect; inconclusive means small, poorly fitted or top-dose-only effect, or effect the other way; inactive means no such curve, though single readings can be large or run the other way. A potency beside an inconclusive call is a rough fit, not a confirmed value.

By UniProt entry, the sequences of proteins in these tests, tags left out. Where a name states a change or a piece, a line headed by the entry shows the natural chain unless it says otherwise.
UniProt P51450: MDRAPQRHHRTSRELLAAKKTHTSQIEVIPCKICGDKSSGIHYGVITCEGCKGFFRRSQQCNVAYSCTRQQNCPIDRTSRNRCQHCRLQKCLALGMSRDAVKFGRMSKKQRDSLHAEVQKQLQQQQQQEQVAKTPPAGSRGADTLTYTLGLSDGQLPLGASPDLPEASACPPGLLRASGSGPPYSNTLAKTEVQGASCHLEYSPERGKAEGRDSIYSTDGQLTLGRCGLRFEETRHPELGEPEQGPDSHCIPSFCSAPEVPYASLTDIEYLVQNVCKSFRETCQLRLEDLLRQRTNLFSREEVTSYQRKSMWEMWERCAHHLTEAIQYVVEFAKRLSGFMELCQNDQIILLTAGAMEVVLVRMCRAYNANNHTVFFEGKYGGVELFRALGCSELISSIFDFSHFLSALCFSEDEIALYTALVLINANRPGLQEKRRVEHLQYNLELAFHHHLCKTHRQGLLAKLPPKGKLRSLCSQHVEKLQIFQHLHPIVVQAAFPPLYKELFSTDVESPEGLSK

Target: Nuclear receptor ROR-gamma (Mus musculus) (UniProt P51450)
Assay: qHTS for inhibitors of ROR gamma transcriptional activity; further: nearly all actives have a fitted effect of over 60% in size
Details: Drosophila S2 Gal4-RORgamma UAS-luciferase reporter, 20 h; series mostly up to 53.6 µM
Procedure, shortened: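 Schneider cells (Drosophila), stable Gal4 DBD–ROR gamma + UAS-luc; 1 hr cmpd preincubation; Cu2+ induction 700 uM final; 20 hr ambient; luminescence.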
Potency means the concentration at half of the fitted maximal effect.

SMILES	Potency
COc1ccc(OCC(=O)Nc2ccc3c(c2)nc(CCN2CCN(C)CC2)n3C)cc1	inactive
CC(OC(=O)CNC(=O)c1ccc2ccccc2c1)C(=O)NC1CCCCC1C (stereo unspecified)	inactive
O=C(N/N=C/c1ccc(OC(=O)c2cccs2)cc1)c1cccc(F)c1	inconclusive: 0.0224 µM [activator, full curve, poor fit]
Clc1ccc(OCc2cc(-c3ccccc3)no2)c(Cl)c1	inconclusive: 12.6 µM [inhibitor, partial curve, poor fit]
O=C(CCCn1c(=O)c2sccc2n(CC(=O)OCc2ccccc2)c1=O)NCc1ccco1	inconclusive: 12.6 µM [activator, partial curve]
COc1c(C)cc(C(=O)C2CCCN(C(=O)c3cc(C4CC4)[nH]n3)C2)cc1C (stereo unspecified)	inconclusive: 10 µM [activator, partial curve]
CC1CN(c2ccc(Cl)nn2)CC(C)O1 (stereo unspecified)	inconclusive: 3.98 µM [activator, partial curve]
O=C(CCn1[nH]c(=O)c2ccccc2c1=O)OC1CCCCC1	inconclusive: 28.2 µM [inhibitor, single point]
Cc1cc(C(=O)COC(=O)c2ccc[nH]c2=O)c(C)n1C1CC1	inactive
CN(C)S(=O)(=O)c1cccc(C(=O)OCC(=O)Nc2sccc2C#N)c1	inactive
CCC(C)NCC(=O)Nc1cc(S(=O)(=O)N(CC)c2ccccc2)ccc1Cl (stereo unspecified)	inconclusive: 22.4 µM [activator, single point]
O=C(CCN1CCCCC1)c1ccc2c(c1)OCO2	active: 3.16 µM
CCC1(CC)Nc2ccccc2C(=O)N1c1ccc(NC(C)=O)cc1	inconclusive: 31.6 µM [activator, single point]
CN1CCN(C(=O)CCN2C(=O)/C(=C\c3ccccc3F)SC2=S)CC1	active: 5.62 µM
CN(C)c1ccc(C(=S)N2CCN(C(=S)Nc3ccccc3)CC2)cc1	inactive
Cc1ccc(C(=O)CSc2nc3ccccc3c(=O)n2N)o1	inconclusive: 35.5 µM [inhibitor, single point]
NC(=S)NNc1cccc(Cl)c1	active: 5.62 µM
Cc1ccc(C(=O)Nc2ccc3nc(C)sc3c2)s1	inconclusive: 0.891 µM [activator, full curve, poor fit]
O=c1c2ccccc2[nH]c(=S)n1C1CCCCC1	active: 0.891 µM
CN(C)c1ccnc(-n2cccc2/C=N/OCc2cccc(F)c2)c1C#N	inactive
Oc1ccc(-c2[nH]ncc2-c2cccc3cccnc23)c(O)c1	inactive
CC(C)c1ccc(NC(=S)NN2CCN(C)CC2)cc1	active: 11.2 µM
C/C(=N\NC(N)=S)C1(C)CCCCC1	active: 3.55 µM
COc1ccc(N=C2S/C(=C\c3ccc(N4CCOCC4)o3)C(=O)N2CCc2c[nH]c3ccccc23)cc1	active: 6.31 µM
CCn1c(=O)c(C(=O)Nc2ncccc2C)c(O)c2ccccc21	inactive
Nc1nnc(Cc2ccc(F)cc2)s1	inactive

SMILES	Potency
O=C(CSc1ccc(-c2ccc(F)cc2)nn1)N1CCCCC1	inconclusive: 8.91 µM [activator, partial curve]
Cc1onc(-c2ccccc2Cl)c1C(=O)N1CCCCC1C (stereo unspecified)	inactive
Cc1ccc(S(=O)(=O)NCC2NCCc3ccccc32)cc1 (stereo unspecified)	active: 17.8 µM
Oc1cccc(/C=N/n2c(C3CCCCC3)n[nH]c2=S)c1	inconclusive: 11.2 µM [inhibitor, partial curve, poor fit]
Cn1c2ccccc2c2nnc(SCC(=O)NC3CCCC3)nc21	inactive
CC(/C=N/NC(=O)c1ccccn1)=C\c1ccco1	inconclusive: 15.8 µM [inhibitor, single point]
C/C(=N\NC(=O)C(=O)Nc1ccc(C)c(Cl)c1)c1ccncc1	inconclusive: 2.24 µM [activator, full curve]
COc1ccc(NC(=O)CO/N=C(\C)c2cccs2)cc1	inconclusive: 12.6 µM [activator, single point]
Cc1ccc(NCCC(=O)c2cccs2)cc1C	inconclusive: 3.16 µM [inhibitor, single point]
FC(F)Sc1ccc(NC(=S)NC2CCCC2)cc1	active: 11.2 µM
COc1ccc(C(=O)/C(=C/O)N=Nc2ccc(F)cc2)cc1	inconclusive: 35.5 µM [inhibitor, single point]
CC(C)CNS(=O)(=O)c1ccc(C(=O)Nc2ccc3c(c2)OCO3)cc1	inconclusive: 14.1 µM [inhibitor, single point]
N#CCSc1nc2cc(C(=O)N3CCCC3)ccc2c(=O)n1Cc1ccccc1	inconclusive: 11.2 µM [activator, single point]
CC(C)CNS(=O)(=O)c1ccc(CCC(=O)N2CCCC2)cc1	inactive
Cc1ccccc1OCCn1c(=S)[nH]c2ccccc21	active: 2.51 µM
COc1ccc(N2CCN(S(=O)(=O)c3ccc4c(c3)CCCC4)CC2)c([N+](=O)[O-])c1	inconclusive: 15.8 µM [activator, partial curve]
Cc1ccc(-c2ccc(/C=N/O)o2)cc1[N+](=O)[O-]	inactive
CCc1nnc(N/N=C/c2cc(Br)c(O)cc2O)n1N	active: 10 µM
Cc1nc2sc(C(c3ccc(C(C)C)cc3)N3CCN(CCO)CC3)c(O)n2n1 (stereo unspecified)	inconclusive: 17.8 µM [inhibitor, single point]
CCC(=Nc1ccccc1O)C1=C(O)CC(c2ccccc2)CC1=O (stereo unspecified)	inconclusive: 11.2 µM [inhibitor, partial curve]
CC1=NN(c2ccccc2)C(=O)C1C(=O)c1ccccc1 (stereo unspecified)	inconclusive: 14.1 µM [inhibitor, single point]
COc1ncc2nc(C)c(=O)n(C[C@H]3CCCO3)c2n1	inactive
Cc1ccc(O)c(NC(=O)c2cccc(S(=O)(=O)N3CCCCC3)c2)c1	inconclusive: 15.8 µM [activator, single point]
c1csc(CSc2nc3ccccc3s2)c1	inconclusive: 3.55 µM [activator, single point]
CCCn1c(SCC(=O)N2c3ccccc3CC2C)nnc1-c1ccco1 (stereo unspecified)	inconclusive: 0.316 µM [activator, full curve, poor fit]

Sorted by length of the SMILES (rising): part of the list above
SMILES	Potency
c1csc(CSc2nc3ccccc3s2)c1	inconclusive: 3.55 µM [activator, single point]
C/C(=N\NC(N)=S)C1(C)CCCCC1	active: 3.55 µM
O=C(CCN1CCCCC1)c1ccc2c(c1)OCO2	active: 3.16 µM
Cc1ccc(C(=O)CSc2nc3ccccc3c(=O)n2N)o1	inconclusive: 35.5 µM [inhibitor, single point]
O=C(CSc1ccc(-c2ccc(F)cc2)nn1)N1CCCCC1	inconclusive: 8.91 µM [activator, partial curve]
O=C(CCn1[nH]c(=O)c2ccccc2c1=O)OC1CCCCC1	inconclusive: 28.2 µM [inhibitor, single point]
Oc1ccc(-c2[nH]ncc2-c2cccc3cccnc23)c(O)c1	inactive
CCCn1c(SCC(=O)N2c3ccccc3CC2C)nnc1-c1ccco1 (stereo unspecified)	inconclusive: 0.316 µM [activator, full curve, poor fit]
CN(C)c1ccnc(-n2cccc2/C=N/OCc2cccc(F)c2)c1C#N	inactive
N#CCSc1nc2cc(C(=O)N3CCCC3)ccc2c(=O)n1Cc1ccccc1	inconclusive: 11.2 µM [activator, single point]
COc1c(C)cc(C(=O)C2CCCN(C(=O)c3cc(C4CC4)[nH]n3)C2)cc1C (stereo unspecified)	inconclusive: 10 µM [activator, partial curve]
COc1ccc(N2CCN(S(=O)(=O)c3ccc4c(c3)CCCC4)CC2)c([N+](=O)[O-])c1	inconclusive: 15.8 µM [activator, partial curve]
COc1ccc(N=C2S/C(=C\c3ccc(N4CCOCC4)o3)C(=O)N2CCc2c[nH]c3ccccc23)cc1	active: 6.31 µM
